Test results from PubChem BioAssay AID328 (DTP/NCI, 2004).
The list does not hold the whole screen: it gathers tests that were run many times, whatever their T/C, doses with no T/C, and many T/C values between a quarter and a half above the control. Other doses and runs of a compound stand elsewhere. T/C: endpoint of the treated group in % of that of the vehicle group. Some doses have a count of surviving animals in place of a T/C: the source files T/C as zero there, which appears to mark a toxic dose or a test without result, not a measured value. Some survivor counts are full or nearly so, which does not show that the dose was tolerated: the source hardly ever lists a survival T/C far under the control, and the zero likely stands for such cases as well. Counts of survivors are from the toxicity check (mostly the fifth day) where no day follows; animals may have died later. Schedule codes are those of the source, taken here to give the interval after Q, in days (D) or hours (H), and the number of doses after X. Some entries hold several experiments; the results are listed from low to high. For survival time, the PubChem record calls one and a half times the control and up active, and a quarter to a half above the control has no call in these data; cut-offs in other NCI protocols can differ. Some T/C values carry the count of animals alive at the toxicity check (mostly the fifth day); where none is given, no animal had died by that day.

System: BDF1 mice, P388 leukemia ip, median survival T/C
Test: NCI In Vivo Anticancer Drug Screen. Data for tumor model P388 Leukemia (intraperitoneal) in B6D2F1 (BDF1) mice
Conditions: T/C endpoint: median survival time, higher T/C = longer survival
Procedure, shortened: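 Steps: implant the tumour, treat one group with compound and another with vehicle, record survival, then divide treated by control.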

[1] = dose: 100.0 mg/kg/injection, schedule: Q04DX003 (ip), vehicle: saline with Tween-80
[2] = dose: 200.0 mg/kg/injection, schedule: Q04DX003 (ip), vehicle: saline with Tween-80
[3] = dose: 400.0 mg/kg/injection, schedule: Q04DX003 (ip), vehicle: saline with Tween-80
[4] = dose: 100.0 mg/kg/injection, schedule: Q01DX009 (ip), vehicle: saline with Tween-80
[5] = dose: 200.0 mg/kg/injection, schedule: Q01DX009 (ip), vehicle: saline with Tween-80
[6] = dose: 100.0 mg/kg/injection, schedule: Q01DX009 (ip), vehicle: Klucel (hydroxypropylcellulose) (HPC)
[7] = dose: 50.0 mg/kg/injection, schedule: Q01DX009 (ip), vehicle: saline with Tween-80
[8] = dose: 50.0 mg/kg/injection, schedule: Q01DX009 (ip), vehicle: Klucel (hydroxypropylcellulose) (HPC)
[9] = dose: 12.5 mg/kg/injection, schedule: Q01DX009 (ip), vehicle: saline with Tween-80

Structure (SMILES): CCN(CC)Cc1cc(Nc2c3ccccc3nc3cc(Cl)ccc23)ccc1O
- T/C (dose: 50.0 mg/kg/injection, schedule: Q01DX009 (ip), vehicle: saline): 145 % of control

Structure (SMILES): O=C(NCCN1CC1)C(=O)NCCN1CC1
- survivor count (dose: 12.5 mg/kg/injection, schedule: Q04DX003 (ip), vehicle: saline with Tween-80): 6 of 6
- survivor count (dose: 25.0 mg/kg/injection, schedule: Q04DX003 (ip), vehicle: saline with Tween-80): 2 of 6

Structure (SMILES): Cn1cnc([N+](=O)[O-])c1Sc1ncnc2c1ncn2C1OC(CO)C(O)C1O (stereo not given)
- survivor count (dose: 400.0 mg/kg/injection, schedule: Q01DX009 (ip), vehicle: Klucel (hydroxypropylcellulose) (HPC)): 5 of 6

Structure (SMILES): c1ccc2c[n+]3ccccc3cc2c1
- survivor count (dose: 6.25 mg/kg/injection, schedule: Q01DX009 (ip), vehicle: Klucel (hydroxypropylcellulose) (HPC)): 6 of 6
- survivor count (dose: 25.0 mg/kg/injection, schedule: Q01DX009 (ip), vehicle: saline): 5 of 6
- survivor count (dose: 35.0 mg/kg/injection, schedule: Q04DX003 (ip), vehicle: saline): 6 of 6

Structure (SMILES): C=Cn1ccnc1C.C=Cn1ccnc1C.CC(=O)CC(C)=O.CC(=O)CC(C)=O.[Co]
- survivor count [1]: 3 of 6
- survivor count (dose: 100.0 mg/kg/injection, schedule: Q04DX003 (ip), vehicle: saline): 2 of 6
- survivor count [2]: 0 of 6
- survivor count [3]: 0 of 6

Structure (SMILES): O=C1OC(=Nc2cccc([N+](=O)[O-])c2)c2ccccc21
- T/C [4]: 144 % of control

Structure (SMILES): CN(C)CCOCN1COCC1(C)C
- T/C [4]: 139 % of control
- survivor count [5]: 4 of 6

Structure (SMILES): ClCC(Cl)CN1CCCCC1 (stereo not given)
- survivor count (dose: 75.0 mg/kg/injection, schedule: Q01DX009 (ip), vehicle: saline): 6 of 6
- survivor count (dose: 75.0 mg/kg/injection, schedule: Q04DX003 (ip), vehicle: saline): 2 of 6
- survivor count (dose: 115.0 mg/kg/injection, schedule: Q01DX009 (ip), vehicle: saline): 2 of 6
- survivor count (dose: 115.0 mg/kg/injection, schedule: Q04DX003 (ip), vehicle: saline): 3 of 6
- survivor count (dose: 170.0 mg/kg/injection, schedule: Q01DX009 (ip), vehicle: saline): 0 of 6
- survivor count (dose: 170.0 mg/kg/injection, schedule: Q04DX003 (ip), vehicle: saline): 1 of 6

Structure (SMILES): C=CC1CN2CCC1CC2C(O)c1ccnc2ccccc12 (stereo not given)
- survivor count [3]: 0 of 6

Structure (SMILES): Cc1c2ccncc2c(C)c2c1[nH]c1ccccc12
- T/C (dose: 2.5 mg/kg/injection, schedule: Q01DX010 (ip), vehicle: saline): 127 % of control
- T/C (dose: 5.0 mg/kg/injection, schedule: Q01DX010 (ip), vehicle: saline): 145 % of control
- T/C (dose: 13.0 mg/kg/injection, schedule: Q04DX003 (ip), vehicle: water): 145 % of control
- survivor count (dose: 30.0 mg/kg/injection, schedule: Q01DX009 (ip), vehicle: water): 10 of 10
- survivor count (dose: 60.0 mg/kg/injection, schedule: Q01DX009 (ip), vehicle: water): 10 of 10
- T/C (dose: 66.7 mg/kg/injection, schedule: Q04DX003 (ip), vehicle: clinical formulation): 140 % of control
- survivor count (dose: 80.0 mg/kg/injection, schedule: Q01DX010 (ip), vehicle: saline): 6 of 6
- survivor count (dose: 100.0 mg/kg/injection, schedule: Q04DX003 (ip), vehicle: water): 8 of 8
- survivor count (dose: 120.0 mg/kg/injection, schedule: Q01DX009 (ip), vehicle: water): 10 of 10
- survivor count (dose: 160.0 mg/kg/injection, schedule: Q01DX010 (ip), vehicle: saline): 6 of 6

Structure (SMILES): CC(C)(C)c1ccc(OCc2cnc[nH]2)cc1
- survivor count (dose: 200.0 mg/kg/injection, schedule: Q01DX001 (ip), vehicle: saline): 1 of 6
- survivor count (dose: 400.0 mg/kg/injection, schedule: Q01DX001 (ip), vehicle: saline): 0 of 6

Structure (SMILES): CSc1ncnc2c1ncn2C1CCCO1 (stereo not given)
- survivor count (dose: 200.0 mg/kg/injection, schedule: Q04DX003 (ip), vehicle: saline): 3 of 6
- survivor count (dose: 225.0 mg/kg/injection, schedule: Q01DX009 (ip), vehicle: Klucel (hydroxypropylcellulose) (HPC)): 4 of 6
- survivor count (dose: 335.0 mg/kg/injection, schedule: Q01DX009 (ip), vehicle: Klucel (hydroxypropylcellulose) (HPC)): 1 of 6
- survivor count (dose: 400.0 mg/kg/injection, schedule: Q04DX003 (ip), vehicle: saline): 1 of 6

Structure (SMILES): Cc1ccc(C)c(CCN)c1
- survivor count [4]: 4 of 6

Structure (SMILES): CN1CCC(C(c2ccccc2)c2ccccc2)C1 (stereo not given)
- survivor count [6]: 3 of 6
- survivor count (dose: 200.0 mg/kg/injection, schedule: Q01DX009 (ip), vehicle: Klucel (hydroxypropylcellulose) (HPC)): 0 of 6

Structure (SMILES): CC1(C)COCN1COCCOCN1COCC1(C)C
- T/C [7]: 127 % of control
- T/C [4]: 139 % of control
- survivor count [5]: 3 of 6

Structure (SMILES): CCC[CH2][Sn]([CH2]CCC)[CH2]CCC.CCC[CH2][Sn]([CH2]CCC)[CH2]CCC
- survivor count (dose: 30.0 mg/kg/injection, schedule: Q01DX009 (ip), vehicle: saline with Tween-80): 3 of 6
- survivor count (dose: 44.0 mg/kg/injection, schedule: Q01DX009 (ip), vehicle: saline with Tween-80): 0 of 6
- survivor count (dose: 44.0 mg/kg/injection, schedule: Q04DX003 (ip), vehicle: saline with Tween-80): 1 of 6 and 5 of 6
- survivor count [8]: 3 of 6
- survivor count (dose: 67.0 mg/kg/injection, schedule: Q01DX009 (ip), vehicle: saline with Tween-80): 0 of 6
- survivor count (dose: 67.0 mg/kg/injection, schedule: Q04DX003 (ip), vehicle: saline with Tween-80): 2 of 6 and 6 of 6
- survivor count [6]: 0 of 6
- T/C [1]: 131 % of control
- survivor count [1]: 2 of 6 and 3 of 6
- survivor count (dose: 150.0 mg/kg/injection, schedule: Q04DX003 (ip), vehicle: saline with Tween-80): 0 of 6
- survivor count [2]: 2 of 6
- survivor count [3]: 0 of 6

Structure (SMILES): CC(CCC(=O)NC12CC3CC(CC(C3)C1)C2)C1CCC2C3C(OC=O)CC4CC(OC=O)CCC4(C)C3CC(OC=O)C12C (stereo not given)
- survivor count (dose: 100.0 mg/kg/injection, schedule: Q04DX002 (ip), vehicle: saline with Tween-80): 6 of 6

Structure (SMILES): C[n+]1ccc2cc(N)c3c4ccccc4sc3c2c1
- survivor count (dose: 1.56 mg/kg/injection, schedule: Q01DX009 (ip), vehicle: saline with Tween-80): 6 of 6
- T/C (dose: 6.25 mg/kg/injection, schedule: Q01DX009 (ip), vehicle: saline with Tween-80, evaluated on day 20): 135 % of control [4 of 6 alive]
- T/C (dose: 6.25 mg/kg/injection, schedule: Q01DX009 (ip), vehicle: saline with Tween-80, evaluated on day 30): 128 % of control
- T/C (dose: 12.5 mg/kg/injection, schedule: Q01DX009 (ip), vehicle: Klucel (hydroxypropylcellulose) (HPC)): 140 % of control
- T/C [9]: 128 % of control
- survivor count [9]: 3 of 6
- T/C (dose: 25.0 mg/kg/injection, schedule: Q01DX009 (ip), vehicle: saline with Tween-80): 137 % of control
- survivor count [8]: 0 of 6
- survivor count [7]: 0 of 6 and 3 of 6
- survivor count (dose: 50.0 mg/kg/injection, schedule: Q04DX003 (ip), vehicle: saline with Tween-80): 5 of 6

Structure (SMILES): CCN1/C(=C/C(C)=C/c2sc3ccccc3[n+]2CC)Sc2ccccc21
- T/C (dose: 200.0 micrograms/kg/injection, schedule: Q01DX009 (ip), vehicle: Klucel (hydroxypropylcellulose) (HPC)): 125 % of control [5 of 6 alive]
- survivor count (dose: 400.0 micrograms/kg/injection, schedule: Q01DX009 (ip), vehicle: Klucel (hydroxypropylcellulose) (HPC)): 1 of 6

Structure (SMILES): C#CC(C)(C)NC(=O)NC12CC3CC(CC(C3)C1)C2
- survivor count (dose: 100.0 mg/kg/injection, schedule: Q01DX001 (ip), vehicle: saline with Tween-80): 6 of 6

Structure (SMILES): N=C1N=C(C(F)(F)F)N=C1c1[nH]c(C(F)(F)F)nc1N
- survivor count (dose: 12.5 mg/kg/injection, schedule: Q01DX009 (ip), vehicle: water): 4 of 6
